Among the data in patent US20090181909 are IC50 values, retold here.

The exact form of at least one protein or probe is not confirmed.

In the data set the test system is T1, L-AVP ((Arg8)-vasopressin) (Homo sapiens).
T1 sequence: CYFQNCPRG
The data set can be described thus: activity in cells. As to conditions: L-RNA, hexaethylene glycol (PEG) spacer between Helix 2 and Helix 1, purified recombinant protein, protein details: L-peptide (cell assays: Calbiochem), synthetic backbone, mirror-image nucleic acid, variant of CHF-F-037 (D-RNA aptamer).

As to “GGGGUAGGGCUUGGAUGGGUAGUACACGUGUGCGUGGU [CHF-F-037 spiegelmer]”, the IC50 runs as follows: (V1 receptor Ca release, A7r5 cells, 5 nM AVP) 6 nM; (V2 receptor cAMP, LLC-PK1 cells, 1 nM AVP) 1 nM.
Consider “GGGGUAGGGCUUGGAUGGGUAGUACACGUGUGCGUGGU [CHF-F-037-3'PEG spiegelmer]”, for which the IC50 is 7 nM (3'-C6-amino 40 kDa PEG, V1 receptor Ca release, A7r5 cells, 5 nM AVP) and 1 nM (3'-C6-amino 40 kDa PEG, V2 receptor cAMP, LLC-PK1 cells, 1 nM AVP).

A word on the IC50: it is the concentration at which inhibition is half-maximal.
